# Out of some 350,000 compounds screened, about 220 (0.063%) were called active. This list was built around the results that the source calls inconclusive (neither active nor inactive); the mix of calls is not that of the screen. The call rests on the fitted dose curve; in most records, active means well fitted activation curve with a large enough effect; inconclusive means small, poorly fitted or top-dose-only effect; inactive means no such curve, though single readings can be large or run the other way. Potencies beside an inconclusive call are fits to weak or partial responses and may not hold up.
# Test: qHTS for Activators of Integrin-Mediated Alleviation for Muscular Dystrophy; further: nearly all actives have a fitted effect of over 60% in size;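 on activation: 100% = response of the positive control SU9516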
# Conditions: alpha7betagal myoblasts, beta-gal FDG fluorescence, 48 h; activation: at 38.3 µM (top of the series)
# Outline: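 alpha7betagal+/- myoblasts (passage 13, 250/well) treated 48 h at 37C with compounds at 1:260 dilution of DMSO stock. Lysed, then beta-galactosidase activity read as FDG fluorescence (ex 480/em 540) after 30 min, with pre-read for autofluorescence.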
# Potency means the concentration at half of the fitted maximal effect.
Structure (SMILES),activation,Potency
NC(=O)C1CCN(C(=O)CNC(=O)c2ccc(F)cc2)CC1,inactive: -9.7%,–
COc1ccc(OC)c(C2CC(=O)OC3=C2C(=O)CC(C)(C)C3)c1 (stereo unspecified),–,"inconclusive: 3.55 µM [activator, single point]"
O=C(C[n+]1cn(C(F)F)c2ccccc21)c1ccc(OC(F)F)cc1,–,"inconclusive: 2.82 µM [activator, partial curve, poor fit]"
COCc1nnc(NC(=O)c2ccc(S(=O)(=O)N3CCCc4ccccc43)cc2)o1,inactive: -43.9%,–
CCCc1cc(=O)oc2cc(OC(C)C(=O)NCC3CCC(C(=O)O)CC3)ccc12 (stereo unspecified),inactive: 5.02%,–
O=C(NCCc1ccc(Cl)cc1)C1CC(=O)N(CCc2ccccc2)C1 (stereo unspecified),–,"inconclusive: 0.501 µM [activator, full curve, poor fit]"
CC(Oc1cccc(Cl)c1)C(=O)Nc1ccncc1 (stereo unspecified),–,"inconclusive: 28.2 µM [activator, single point]"
O=C(O)c1ccc(N/N=C/c2ccc(OC(=O)c3cccc(Cl)c3)cc2)cc1,–,"inconclusive: 28.2 µM [activator, single point]"
CN(Cc1ccco1)S(=O)(=O)c1nnc(NC(=O)c2ccc(F)cc2)s1,–,"inconclusive: 0.447 µM [activator, full curve, poor fit]"
Cc1nonc1CN(C)C(=O)c1ccc(OC2CCN(C(=O)c3cccnc3)CC2)cc1,–,"inconclusive: 2.51 µM [activator, partial curve, poor fit]"
COC(=O)c1nc(NC(=O)c2ccccc2Br)n[nH]1,–,"inconclusive: 28.2 µM [activator, single point]"
N#CCN1CCN(CC(=O)c2ccc(Br)cc2)CC1,–,"inconclusive: 2.51 µM [activator, single point]"
O=C1CSC(=Nc2ccc(Cl)cc2)N1,–,"inconclusive: 3.55 µM [activator, single point]"
O=C(c1ccccc1Cl)N1CCC(N2CCC(C(=O)N3CCCC3)CC2)CC1,–,"inconclusive: 5.01 µM [activator, single point]"
O=C(COC(=O)c1ccc(OC(F)F)cc1)NCCCN1CCCC1=O,–,"inconclusive: 28.2 µM [activator, single point]"
COc1cc(S(=O)(=O)NC2CCCC2)ccc1-n1cnnn1,–,"inconclusive: 2.24 µM [activator, full curve, poor fit]"
Cc1ccc(CNc2nc(-c3cccs3)nc3ccccc23)cc1,inactive: -38.3%,–
CCOC(=O)c1ccc(NC(=O)c2ccco2)cc1,inactive: 0%,–
Cn1c(-c2cc3ccccc3oc2=O)nc2ccccc21,–,"inconclusive: 0.447 µM [activator, full curve, poor fit]"
O=S(=O)(c1ccc(Cl)cc1)c1cnc2ccccc2n1,inconclusive: -64.7% [activator],–
NC(=O)c1sc2nc(-c3cccnc3)ccc2c1N,–,"inconclusive: 5.01 µM [activator, single point]"
CC(=O)c1cccc(CN2CCN(Cc3ccc(C)cc3)C(CCO)C2)c1 (stereo unspecified),–,"inconclusive: 5.01 µM [activator, single point]"
CCOc1cc(/C=C2\C(=O)N(CCc3ccc(OC)c(OC)c3)C(C)=C2C(=O)OC)ccc1O,inactive: -17.1%,–
COc1ccc(-c2cc(=O)oc3cc(OCC(=O)Nc4ccc(CCO)cc4)ccc23)cc1,inactive: 0%,–

# Structural class, the entries above with a thiophene ring, fused or not
Structure (SMILES),activation,Potency
Cc1ccc(CNc2nc(-c3cccs3)nc3ccccc23)cc1,inactive: -38.3%,–
NC(=O)c1sc2nc(-c3cccnc3)ccc2c1N,–,"inconclusive: 5.01 µM [activator, single point]"

# (cont.)

Structure (SMILES),activation,Potency
COc1ccc2nc(/C=N/NC(=O)[C@H](CCSC)NC(=O)OC(C)(C)C)ccc2c1,inactive: -9.47%,–
O=C(Nc1ccccc1)OC1CC2CC1C1CCCC21 (stereo unspecified),–,"inconclusive: 4.47 µM [activator, partial curve, poor fit]"
COc1ccc(N2C(=O)C(Cl)=C(N3CCOCC3)C2=O)cc1,inactive: 16.7%,–
COc1cc(/C=N/NC(=O)c2ccccn2)ccc1OC(=O)c1ccc(Br)cc1,–,"inconclusive: 12.6 µM [activator, single point]"
O=C(c1ccc(F)cc1)C1CCN(C(=O)N2CCOCC2)CC1,inactive: -4.1% [at 7.66 µM],–
Cc1ccc(N(CCC(=O)O)S(=O)(=O)c2cccc(C(F)(F)F)c2)cc1,–,"inconclusive: 2.51 µM [activator, partial curve]"
CCOc1ccccc1NC(=O)NNC(=O)c1ccc2ccccc2c1,inactive: -36.5%,–
Cc1cccc(/N=C/c2c(C)[nH]n(-c3ccccc3)c2=O)n1,–,"inconclusive: 5.01 µM [activator, single point]"
COC(=O)c1ccc(N=NN2CCOCC2)cc1,inactive: 20%,–
O=S(=O)(c1cc(Br)c(Cl)s1)N1CCCC1,inactive: 4.51%,–
NC(=S)N/N=C\c1c(OCc2ccccc2Cl)ccc2ccccc12,–,"inconclusive: 3.16 µM [activator, single point]"
C/C(=N\NC(=O)c1nnn(-c2nonc2N)c1CSc1ccc(Cl)cc1)c1ccco1,–,"inconclusive: 28.2 µM [activator, single point]"
CC(=O)C1=C(O)C(=O)N(Cc2ccco2)C1c1ccccc1F (stereo unspecified),–,"inconclusive: 3.16 µM [activator, single point]"
CN1CCN(c2ccc(NC(=O)c3ccc(C#N)cc3F)cc2Cl)CC1,–,"inconclusive: 1.26 µM [activator, partial curve, poor fit]"
Cc1ccc(NC(=O)CN2C(=O)S/C(=C\c3ccc(OCC(=O)O)c(Br)c3)C2=O)cc1,–,"inconclusive: 3.16 µM [activator, single point]"
NS(=O)(=O)c1cccc(NC(=O)c2cc(=O)c3ccccc3o2)c1,–,"inconclusive: 5.01 µM [activator, partial curve, poor fit]"
COc1ccccc1C(c1c(N)n(C)c(=O)n(C)c1=O)C(C)[N+](=O)[O-] (stereo unspecified),inactive: -20.1%,–
CCCCCCC(=O)Oc1cccc(N2C(=O)C3CCCCC3C2=O)c1 (stereo unspecified),–,"inconclusive: 11.2 µM [activator, single point]"
COc1ccccc1N(CC(=O)NCCN1CCOCC1)S(=O)(=O)c1ccc(C)cc1,–,"inconclusive: 15.8 µM [activator, single point]"
CCc1nnc(NC(=O)CN2CCN(c3ccccc3F)CC2)s1,–,"inconclusive: 14.1 µM [activator, single point]"
Cc1ccc(C(=O)Nc2ccnc(-c3cccnc3)n2)cc1,–,"inconclusive: 0.708 µM [activator, full curve, poor fit]"
COc1ccc(C2CC(c3ccc(Br)cc3)=NN2C(=O)c2cccnc2)cc1 (stereo unspecified),inactive: -0.954%,–
O=C(Nc1nnc(CC2=CCCCC2)s1)c1cccs1,inactive: 9.68%,–
Cc1cc(C)n2nc(C(=O)Nc3ccc(S(=O)(=O)N(C)C)cc3)nc2n1,–,"inconclusive: 2.82 µM [activator, single point]"

Structure (SMILES),activation,Potency
NS(=O)(=O)c1ccc(NC(=O)c2ccc(CNS(=O)(=O)c3cc(C(F)(F)F)ccc3Cl)cc2)cc1,–,active: 10 µM
CN(C)S(=O)(=O)c1cccc(NC(=O)COC(=O)CCC(=O)c2cccs2)c1,–,"inconclusive: 5.01 µM [activator, single point]"
Fc1ccccc1-n1cc(-c2ccccc2)[nH]c1=S,inactive: 9.5%,–
C/C(=N\NC(=O)c1ccncc1)c1cc2ccccc2o1,–,"inconclusive: 5.01 µM [activator, single point]"
Cc1ccc(/C=N/N2CCN(c3ccccn3)CC2)cc1,–,"inconclusive: 20 µM [activator, single point]"
COC(=O)Cn1cc(C(=O)C(C)(C)C)c2ccccc21,–,"inconclusive: 2 µM [activator, partial curve, poor fit]"
CCC(C)NC(=O)c1ccc2c(SCC(=O)O)c3c(nc2c1)CCCC3 (stereo unspecified),–,"inconclusive: 14.1 µM [activator, partial curve, poor fit]"
O=C(NNC(=S)NCc1ccc(Cl)cc1)c1ccc(Br)o1,–,"inconclusive: 10 µM [activator, partial curve, poor fit]"
NS(=O)(=O)c1ccc(NC(=O)CN2C(=O)CCC2=O)cc1,inactive: 28.8%,–
O=C(Nc1cc(Sc2nc3ccccc3s2)cc([N+](=O)[O-])c1)c1ccccc1,inactive: -27.4%,–
CC(C)CCn1cnc2c(cnn2-c2ccc(F)cc2)c1=O,inactive: 0.329%,–
Cc1ccc(/C=C2/C(=O)c3ccc(C(=O)O)cc3C2=O)o1,–,"inconclusive: 11.2 µM [activator, single point]"
Cc1ccc(SCCNC(=S)Nc2ccc(C)c(C)c2)cc1,–,"inconclusive: 5.01 µM [activator, partial curve, poor fit]"
COc1ccc(/C=C2/SC(=S)N(Cc3ccccc3)C2=O)cc1O,–,"inconclusive: 3.16 µM [activator, single point]"
Clc1nn2cnnc2c2ccccc12,inactive: -33.2%,–
NS(=O)(=O)c1cccc(C(=O)NC2CCSc3ccccc32)c1 (stereo unspecified),inactive: -0.917%,–
Cc1ccc2[nH]c(=O)c(CN(Cc3ccco3)S(=O)(=O)c3c(C)ccc4nsnc34)cc2c1,inactive: -34.1%,–
O=C1N=C(N2C=CC(=C3C=CNC=C3)C=C2)/C(=C/N=NC(=O)c2ccccc2O)S1,–,"inconclusive: 1.58 µM [activator, full curve, poor fit]"
O=C(N/N=C/c1ccoc1)c1cccc([N+](=O)[O-])c1,–,"inconclusive: 2.82 µM [activator, single point]"
CC(=O)c1ccc(OC(=O)Cc2cccc3ccccc23)cc1,–,"inconclusive: 4.47 µM [activator, single point]"
CCOC(=O)c1nnn(CC(=O)N2N=C(c3ccccc3)CC2c2ccccc2)c1C(=O)OCC (stereo unspecified),inactive: 11.8%,–
CSCCCNC(=S)Nc1cccc(S(=O)(=O)NC2=NCCC2)c1,–,"inconclusive: 0.447 µM [activator, full curve, poor fit]"
S=C(NCc1ccco1)N1CCN(c2nc(-c3ccc(Cl)cc3)cs2)CC1,–,"inconclusive: 22.4 µM [activator, single point]"
